Measurements published in US7994209B2, “3-phenoxymethylpyrrolidine compounds” (Theravance, Inc., priority 2009, dated 2011).

Amino acid sequences for entries named in this document (tags omitted).
UniProt P31645, whole entry: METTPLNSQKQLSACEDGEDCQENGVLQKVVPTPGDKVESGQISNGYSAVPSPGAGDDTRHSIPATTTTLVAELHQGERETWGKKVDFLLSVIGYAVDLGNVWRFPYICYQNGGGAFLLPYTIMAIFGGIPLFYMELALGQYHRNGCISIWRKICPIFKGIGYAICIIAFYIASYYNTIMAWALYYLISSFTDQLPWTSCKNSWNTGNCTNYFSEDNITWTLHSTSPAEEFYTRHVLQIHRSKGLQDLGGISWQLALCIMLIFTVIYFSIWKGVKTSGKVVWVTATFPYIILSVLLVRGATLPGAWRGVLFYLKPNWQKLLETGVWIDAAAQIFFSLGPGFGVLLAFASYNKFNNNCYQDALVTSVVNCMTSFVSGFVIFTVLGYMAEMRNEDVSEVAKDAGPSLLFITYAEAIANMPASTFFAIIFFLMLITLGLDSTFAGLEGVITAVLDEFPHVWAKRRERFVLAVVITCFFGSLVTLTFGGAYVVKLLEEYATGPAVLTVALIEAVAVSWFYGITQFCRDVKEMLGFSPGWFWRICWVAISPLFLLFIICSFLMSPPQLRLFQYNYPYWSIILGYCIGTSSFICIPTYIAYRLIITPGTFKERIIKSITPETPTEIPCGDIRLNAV
UniProt P23975, whole entry: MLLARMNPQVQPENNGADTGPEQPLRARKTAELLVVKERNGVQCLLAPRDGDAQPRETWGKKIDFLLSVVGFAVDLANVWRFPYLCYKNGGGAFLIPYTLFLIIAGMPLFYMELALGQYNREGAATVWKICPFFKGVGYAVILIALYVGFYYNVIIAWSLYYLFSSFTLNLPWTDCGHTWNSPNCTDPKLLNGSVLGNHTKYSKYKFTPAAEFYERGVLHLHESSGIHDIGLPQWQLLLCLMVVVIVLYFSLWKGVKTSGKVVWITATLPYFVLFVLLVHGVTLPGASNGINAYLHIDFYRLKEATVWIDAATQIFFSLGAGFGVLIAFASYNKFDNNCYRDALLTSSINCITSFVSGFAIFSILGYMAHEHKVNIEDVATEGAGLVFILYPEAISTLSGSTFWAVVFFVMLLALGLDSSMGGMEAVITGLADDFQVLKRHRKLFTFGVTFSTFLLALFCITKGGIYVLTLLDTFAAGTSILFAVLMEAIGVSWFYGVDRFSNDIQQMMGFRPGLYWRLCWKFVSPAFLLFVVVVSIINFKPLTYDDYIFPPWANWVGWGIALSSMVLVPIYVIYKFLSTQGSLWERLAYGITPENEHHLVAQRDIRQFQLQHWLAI

Key:
hSERT [1] = target: T1, hSERT (Homo sapiens, UniProt P31645); assay: hSERT neurotransmitter uptake assay (3H-5-HT), Assay 2; assay type: cell-based; set-up: expressed in transfected cells; host or cells: HEK-293; conditions: serotonin reuptake inhibition, 3H-5-HT uptake, HEK-293 hSERT cells (values without asterisk); read-out: SERT pIC50 (converted)
Method: (§1) Cells were harvested by centrifugation at 1100 rpm for 5 minutes, washed once by resuspension in PBS, then centrifuged. The supernatant was discarded and the cell pellet resuspended, by gentle trituration, in room temperature Krebs-Ringer bicarbonate buffer containing HEPES (10 mM), CaCl2 (2.2 mM), ascorbic acid (200 μM) and pargyline (200 μM), pH 7.4.
(§2) Test compounds were incubated for 30 minutes at 37° C. with the respective cells, prior to addition of radiolabeled neurotransmitter, ^3H-5-HT (20 nM final concentration), ^3H-NE (50 nM final concentration) or ^3H-DA (100 nM final concentration).

hNET [2] = target: T2, hNET (Homo sapiens, UniProt P23975); assay: hNET neurotransmitter uptake assay (3H-NE), Assay 2; assay type: cell-based; set-up: expressed in transfected cells; host or cells: HEK-293; conditions: norepinephrine reuptake inhibition, 3H-NE uptake, HEK-293 hNET cells (values without asterisk); read-out: NET pIC50 (converted)
Method: as §1, §2

hNET [3] = target: T2, hNET; assay: hNET membrane radioligand binding assay (3H-nisoxetine), Assay 1
hSERT [4] = target: T1, hSERT; assay: hSERT membrane radioligand binding assay (3H-citalopram), Assay 1; conditions: SERT pKi, hSERT HEK-293 membranes, 1.0 nM 3H-citalopram; values given as lower bounds

Row | Structure (SMILES) | IC50 (hSERT [1]) | IC50 (hNET [2]) | Ki (hNET [3]) | Ki (hSERT [4])
1 | Cc1c(Cl)cccc1O[C@H](C1CC1)[C@H]1CCNC1 [Example 15, (S)-3-[(R)-(3-Chloro-2-methylphenoxy)cyclopropylmethyl]pyrrolidine] | ≤ 10 nM | ≤ 10 nM | ≤ 10 nM | ≤ 10 nM
2 | Cc1c(Cl)cccc1O[C@@H](C1CC1)[C@@H]1CCNC1 [Example 16-13, (R)-3-[(S)-(3-Chloro-2-methylphenoxy)cyclopropylmethyl]pyrrolidine] | – | – | ≤ 100 nM | ≤ 10 nM
3 | Cc1c(Cl)cccc1O[C@H](C1CC1)[C@@H]1CCNC1 [Example 16-14, (R)-3-[(R)-(3-Chloro-2-methylphenoxy)cyclopropylmethyl]pyrrolidine] | ≤ 10 nM | ≤ 100 nM | ≤ 10 nM | ≤ 10 nM
4 | Cc1c(Cl)cccc1O[C@@H](C1CC1)[C@H]1CCNC1 [Example 16-15, (S)-3-[(S)-(3-Chloro-2-methylphenoxy)cyclopropylmethyl]pyrrolidine] | ≤ 10 nM | ≤ 10 nM | ≤ 10 nM | ≤ 10 nM
